{"source": "PubChem BioAssay AID652243 (Drosophila RNAi Screening Center, 2013)", "test": "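Knock-downs that decrease or increase androgen receptor reporter signal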 (primary screen)", "system": "Drosophila S2R+ cells", "reagents": "long dsRNA against Drosophila genes", "timing": "72 h (48 h, then 24 h hormone)", "challenge": "synthetic androgen R1881 at 10 nM for 24 h", "measurement": "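Per-well raw luminescence of the androgen-driven firefly reporter and of the Renilla control, two replicates each, without normalisation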", "reading the numbers": "firefly reporter light: higher = more light from androgen-responsive reporter; Renilla control light: higher = more constitutive control signal (cell number, transfection)", "rule for the call": "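Across duplicate plates, a knock-down whose log firefly/Renilla ratio shifted a set fold down or up from the GFP/LacZ control mean was a hit; the downward cut appears as both 1.5 and 3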", "meaning of the calls": "active = hit: reporter lowered or raised; inactive = no hit", "note": "In all, the deposit lists about 24,000 reagents; this is a random part of those with a known target gene and a result. Over the whole deposit, 246 (1%) are marked active. 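Plates not normalised; calls are printed but the firefly/Renilla ratio behind them is not deposited; fold cut for lowering reported inconsistently.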 Raw values vary from plate to plate and are shown uncorrected. Not stated in the record: the amount of reagent."}
{"Target gene":"Hel25E","dsRNA":"DRSC03342","firefly reporter light, replicate 1":5.20e5,"firefly reporter light, replicate 2":6.67e5,"Renilla control light, replicate 1":1.28e6,"Renilla control light, replicate 2":1.48e6,"activity call":"inactive"}
{"Target gene":"Hel25E","dsRNA":"DRSC28348","firefly reporter light, replicate 1":1.51e5,"firefly reporter light, replicate 2":3.09e5,"Renilla control light, replicate 1":1.02e6,"Renilla control light, replicate 2":1.37e6,"activity call":"active"}
{"Target gene":"CG1607","dsRNA":"DRSC15130","firefly reporter light, replicate 1":1.13e5,"firefly reporter light, replicate 2":90179,"Renilla control light, replicate 1":8.29e5,"Renilla control light, replicate 2":6.55e5,"activity call":"inactive"}
{"Target gene":"CG1607","dsRNA":"DRSC27010","firefly reporter light, replicate 1":4.97e5,"firefly reporter light, replicate 2":4.39e5,"Renilla control light, replicate 1":7.21e5,"Renilla control light, replicate 2":7.91e5,"activity call":"inactive"}
{"Target gene":"CG32161","dsRNA":"DRSC22128","firefly reporter light, replicate 1":2.57e5,"firefly reporter light, replicate 2":2.85e5,"Renilla control light, replicate 1":1.33e6,"Renilla control light, replicate 2":1.07e6,"activity call":"inactive"}
{"Target gene":"CG12877","dsRNA":"DRSC14565","firefly reporter light, replicate 1":1.99e5,"firefly reporter light, replicate 2":2.38e5,"Renilla control light, replicate 1":2.41e6,"Renilla control light, replicate 2":3.14e6,"activity call":"inactive"}
{"Target gene":"Polr2B","dsRNA":"DRSC16831","firefly reporter light, replicate 1":53361,"firefly reporter light, replicate 2":29964,"Renilla control light, replicate 1":1.36e5,"Renilla control light, replicate 2":1.66e5,"activity call":"inactive"}
{"Target gene":"stl","dsRNA":"DRSC04396","firefly reporter light, replicate 1":4.16e5,"firefly reporter light, replicate 2":4.96e5,"Renilla control light, replicate 1":1.16e6,"Renilla control light, replicate 2":1.25e6,"activity call":"inactive"}
{"Target gene":"Top2","dsRNA":"DRSC03459","firefly reporter light, replicate 1":1.60e5,"firefly reporter light, replicate 2":1.32e5,"Renilla control light, replicate 1":1.21e6,"Renilla control light, replicate 2":1.53e6,"activity call":"inactive"}
{"Target gene":"Cdk5","dsRNA":"DRSC07359","firefly reporter light, replicate 1":1.03e6,"firefly reporter light, replicate 2":1.17e6,"Renilla control light, replicate 1":2.46e6,"Renilla control light, replicate 2":3.15e6,"activity call":"inactive"}
{"Target gene":"Cdk5","dsRNA":"DRSC36682","activity call":"inactive"}
{"Target gene":"CG14105","dsRNA":"DRSC10107","firefly reporter light, replicate 1":2.49e5,"firefly reporter light, replicate 2":2.50e5,"Renilla control light, replicate 1":2.69e6,"Renilla control light, replicate 2":2.20e6,"activity call":"inactive"}
{"Target gene":"CG32815","dsRNA":"DRSC18177","firefly reporter light, replicate 1":2.98e5,"firefly reporter light, replicate 2":3.28e5,"Renilla control light, replicate 1":3.01e6,"Renilla control light, replicate 2":3.11e6,"activity call":"inactive"}
{"Target gene":"CG32815","dsRNA":"DRSC18179","firefly reporter light, replicate 1":2.58e5,"firefly reporter light, replicate 2":3.59e5,"Renilla control light, replicate 1":3.11e6,"Renilla control light, replicate 2":2.90e6,"activity call":"inactive"}
{"Target gene":"Ctr1C","dsRNA":"DRSC15089","firefly reporter light, replicate 1":2.50e5,"firefly reporter light, replicate 2":2.37e5,"Renilla control light, replicate 1":2.38e6,"Renilla control light, replicate 2":2.43e6,"activity call":"inactive"}
{"Target gene":"CG12945","dsRNA":"DRSC14573","firefly reporter light, replicate 1":1.94e5,"firefly reporter light, replicate 2":2.07e5,"Renilla control light, replicate 1":2.67e6,"Renilla control light, replicate 2":3.23e6,"activity call":"inactive"}
{"Target gene":"Crys","dsRNA":"DRSC03294","firefly reporter light, replicate 1":6.19e5,"firefly reporter light, replicate 2":4.97e5,"Renilla control light, replicate 1":1.05e6,"Renilla control light, replicate 2":1.12e6,"activity call":"inactive"}
{"Target gene":"Crys","dsRNA":"DRSC24638","firefly reporter light, replicate 1":3.40e5,"firefly reporter light, replicate 2":3.13e5,"Renilla control light, replicate 1":3.08e5,"Renilla control light, replicate 2":2.94e5,"activity call":"inactive"}
{"Target gene":"Fip1","dsRNA":"DRSC12147","firefly reporter light, replicate 1":40916,"firefly reporter light, replicate 2":20877,"Renilla control light, replicate 1":4.55e5,"Renilla control light, replicate 2":1.69e5,"activity call":"inactive"}
{"Target gene":"CG32642","dsRNA":"DRSC18959","firefly reporter light, replicate 1":6.46e5,"firefly reporter light, replicate 2":5.25e5,"Renilla control light, replicate 1":7.05e5,"Renilla control light, replicate 2":3.60e5,"activity call":"inactive"}
{"Target gene":"CG32642","dsRNA":"DRSC27983","firefly reporter light, replicate 1":9.23e5,"firefly reporter light, replicate 2":7.38e5,"Renilla control light, replicate 1":1.82e6,"Renilla control light, replicate 2":1.31e6,"activity call":"inactive"}

Called active (from the list above):
{"Target gene":"Hel25E","dsRNA":"DRSC28348","firefly reporter light, replicate 1":1.51e5,"firefly reporter light, replicate 2":3.09e5,"Renilla control light, replicate 1":1.02e6,"Renilla control light, replicate 2":1.37e6,"activity call":"active"}
